Results reported in paper PMC11126483.
These are yes or no findings as the source states them, for the method shown. Binding seen in cells or lysates may run through a third protein. Some results given as binding are weak or reduced against the parent protein; the word gives no strength. Tags and fused reporters may be left off the sequences shown.

By UniProt entry, the sequences of proteins in these tests, tags left out.
UniProt Q96P20: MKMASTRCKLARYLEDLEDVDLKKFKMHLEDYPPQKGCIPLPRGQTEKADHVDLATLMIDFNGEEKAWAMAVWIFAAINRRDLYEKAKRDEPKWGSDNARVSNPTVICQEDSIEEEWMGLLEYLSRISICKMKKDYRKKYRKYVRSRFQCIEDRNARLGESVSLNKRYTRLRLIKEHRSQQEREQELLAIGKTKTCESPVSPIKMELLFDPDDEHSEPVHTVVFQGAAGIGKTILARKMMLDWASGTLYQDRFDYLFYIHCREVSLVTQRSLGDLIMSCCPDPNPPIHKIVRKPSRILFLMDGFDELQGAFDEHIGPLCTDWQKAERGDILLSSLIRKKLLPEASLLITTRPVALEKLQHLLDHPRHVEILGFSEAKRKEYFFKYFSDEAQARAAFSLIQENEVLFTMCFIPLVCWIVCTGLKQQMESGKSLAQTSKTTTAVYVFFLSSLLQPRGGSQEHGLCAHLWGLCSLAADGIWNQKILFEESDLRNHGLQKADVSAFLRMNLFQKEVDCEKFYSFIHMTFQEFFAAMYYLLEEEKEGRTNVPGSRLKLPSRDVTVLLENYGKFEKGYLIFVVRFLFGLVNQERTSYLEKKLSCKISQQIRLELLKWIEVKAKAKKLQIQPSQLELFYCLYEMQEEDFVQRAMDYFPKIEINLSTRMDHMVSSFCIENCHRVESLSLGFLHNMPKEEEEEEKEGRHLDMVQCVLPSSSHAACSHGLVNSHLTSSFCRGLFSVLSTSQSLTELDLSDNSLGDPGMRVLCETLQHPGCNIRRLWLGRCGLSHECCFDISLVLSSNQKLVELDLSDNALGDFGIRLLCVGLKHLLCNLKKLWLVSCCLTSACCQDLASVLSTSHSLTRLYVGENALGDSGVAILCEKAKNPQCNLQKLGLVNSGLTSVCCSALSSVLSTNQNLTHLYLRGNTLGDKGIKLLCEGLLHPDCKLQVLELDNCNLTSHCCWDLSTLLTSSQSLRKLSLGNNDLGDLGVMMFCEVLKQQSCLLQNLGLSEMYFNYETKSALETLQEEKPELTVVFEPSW

Target: T1, Flag-FXR (farnesoid X receptor) (human) (UniProt Q96RI1)
T1 sequence: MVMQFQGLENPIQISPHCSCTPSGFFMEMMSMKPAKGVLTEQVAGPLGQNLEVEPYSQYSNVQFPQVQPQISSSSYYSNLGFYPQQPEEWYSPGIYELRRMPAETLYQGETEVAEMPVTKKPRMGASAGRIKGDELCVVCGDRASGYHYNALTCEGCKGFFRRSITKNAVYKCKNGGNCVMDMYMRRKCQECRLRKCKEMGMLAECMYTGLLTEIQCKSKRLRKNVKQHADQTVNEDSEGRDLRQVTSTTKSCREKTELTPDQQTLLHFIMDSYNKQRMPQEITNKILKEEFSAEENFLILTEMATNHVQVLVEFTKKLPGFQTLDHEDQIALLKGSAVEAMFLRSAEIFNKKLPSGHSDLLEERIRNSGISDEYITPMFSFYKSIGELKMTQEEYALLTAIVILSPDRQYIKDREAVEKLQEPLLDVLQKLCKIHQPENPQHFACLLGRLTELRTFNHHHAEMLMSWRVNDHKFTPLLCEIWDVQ
Test: co-IP; lysate of LX2 cells overexpressing Flag-FXR; IP with anti-Flag (1:50) or anti-NLRP3 (1:200) antibody, IgG control, protein A/G Plus-Agarose, 4 °C overnight; immunoblotting

For “NACHT, LRR, and PYD domain-containing protein 3 (NLRP3) (from UniProt Q96P20 1-1036)”, which binding is on record?
Its binding is “binds”.
